These are yes or no findings as the source states them, for the method shown. Binding calls can cover weak binding; strength is not graded here.
Molecular target: deglycosylated human sFlt-1 (human)
Test: size exclusion chromatography of the mixture

binding: binds
B1: anti-Flt-1 antibody 21B3 (antibody, V domains shown)
VH: ELQLVESGGGLVQPGGSLRLSCAASGFTFRDYSMSWVRQAPGKGLEWVSAISWNGDSTYYAESMKGRFTISRDNAKNTLYLQMNSLKSEDTAVYYCAKSWATPIESLYYYGMDYWGKGTLVTVSS
VL: SYELTQSPSVSVALRQTAKITCGGNNIGSQTAQWYQQKPGQAPVLVIYANNRRPSGIPERFSGSKSGNTATLTISGAQAEDEADYYCQVWDGSTQAIVFGGGTHLTVL
notes: VL is LC_21B3; IgG with wild-type Fc; also called 21B3 WT; clone 21B3

— patent US20180072806A1 (SHIRE HUMAN GENETIC THERAPIES, published 2018)
